# Source: patent US20160046678A1 (ZYNGENIA, published 2016)
# Protein sequences, listed by entry. Tags and fused reporters are not part of them. Residues count along the entry.
# UniProt Q16552, residues 24-155: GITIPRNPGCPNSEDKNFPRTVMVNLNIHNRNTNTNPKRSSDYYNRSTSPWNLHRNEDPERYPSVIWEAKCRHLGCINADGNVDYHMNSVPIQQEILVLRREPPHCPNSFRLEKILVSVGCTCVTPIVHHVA
# Results are given in words; binding and its absence hold for the method and conditions named. Some binding calls cover weakened binding; strength is not graded here.
# T1: Angiopoietin-2 (Ang2) (human, UniProt O15123 19-496, biotin label in Examples 22-24)
# T1 construct: also called rhAng2; recombinant Ang2
# T1 sequence (looked up): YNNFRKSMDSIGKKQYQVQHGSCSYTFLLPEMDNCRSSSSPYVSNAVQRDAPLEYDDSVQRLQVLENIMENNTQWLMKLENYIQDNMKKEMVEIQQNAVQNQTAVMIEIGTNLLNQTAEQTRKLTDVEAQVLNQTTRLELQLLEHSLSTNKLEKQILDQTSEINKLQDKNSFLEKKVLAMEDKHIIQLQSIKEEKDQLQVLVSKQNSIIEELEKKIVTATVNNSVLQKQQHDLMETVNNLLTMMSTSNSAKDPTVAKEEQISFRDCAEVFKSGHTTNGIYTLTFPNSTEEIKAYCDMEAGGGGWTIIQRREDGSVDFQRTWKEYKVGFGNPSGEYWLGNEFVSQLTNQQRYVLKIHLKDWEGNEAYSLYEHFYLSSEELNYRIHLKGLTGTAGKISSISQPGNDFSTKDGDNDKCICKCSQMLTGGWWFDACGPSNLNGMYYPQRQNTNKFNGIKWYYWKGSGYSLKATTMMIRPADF
# What was measured:
# [1] = target: T1, Angiopoietin-2 (Ang2); assay: phage ELISA on coated protein, anti-M13 detection
# [2] = target: IL17a (UniProt Q16552); assay: peptide selection, Example 48
# [3] = target: T1, Angiopoietin-2 (Ang2); assay: Example 48, method not detailed
binding [1],binding [2],binding [3],Binder
binds,,,DCFWYPNPEWCY [ANG100]
,binds,,HSAWCWFPEDNICLDRR [ILA61]
,binds,,TSWECHETGDDYFYCWHLK [ILA47]
,binds,,QDELCNFIFNDHCASAF [ILA67]
,binds,,TWYLCWESQWWDVYYCEEEG [ILA51]
,binds,,LDLVCWMYPTEKACWSMR [ILA48]
,binds,,IGWQCEYLPWDECQWQF [ILA65]
,binds,,LSLWCWLHDQAEFCVESN [ILA73]
binds,,binds,LLWECYFYPNPSHCYTDR [ANG179]
,binds,,NALWCWFPEASECGLME [ILA63]
,binds,,DDLFCWMFPSAYVCLPPV [ILA66]
binds,,binds,KSVSMKTCQDYPGWRYCQ [ANG303]
,binds,,MSLWCWMFPWDNMCFKFS [ILA52]
,binds,,LGLWCWMFPWEQVCSVRL [ILA50]
,binds,,ASLWCWMYPNDISCFMES [ILA69]
,binds,,LGLWCWMFPMDPDCHRGY [ILA55]
,binds,,LTMWCEEMIKDEWWCVPAI [ILA62]
binds,,binds,VPWDCYFYPNPPHCYEDA [ANG163]
binds,,binds,LHVDCYFYPNPPHCYIDE [ANG156]
,binds,,VDELCVFMFGQSDCRNLF [ILA43]

binding [1],binding [2],binding [3],Binder
,binds,,QSPWCFMFPQEEHCNHYN [ILA58]
,binds,,STWECWEVNNETYECARLL [ILA45]
binds,,binds,VVVEFWECYVYPNPPHCY [ANG129]
binds,,,PHEECYFYPNPPHCYTMS [ANG318]
,binds,,YTYYCVETEYNMVCELDY [ILA64]
,binds,,SNPWCHIAEYELWCWMGH [ILA46]
,binds,,GHIGCWGPEWYCHWYG [ILA40]
binds,,binds,VPIDCYFYPNPPECYLHN [ANG126]
,binds,,LQELCHYLGFEECVGQQ [ILA68]
,binds,,LSLWCWIFPTEETCKHGL [ILA59]
,binds,,TADLCMFLWHQDCGRIF [ILA71]
binds,,binds,KCPLLPDWASCR [ANG599]
,binds,,LSLWCWAFPSDTVCLARL [ILA44]
,binds,,LFFICYETPEEYMYCLPKG [ILA57]
,binds,,WPLECYTDEELYDIWCLMDL [ILA74]
,binds,,IRDDCQENWQSELVCFLLG [ILA53]
binds,,binds,VNVFLKTCQDYPGWRYCH [ANG335]
binds,,,LWDDCYFFPNPPHCYNSP [ANG200]
binds,,binds,QDHDCYFYPNPPHCYLEG [ANG157]
,binds,,LAYECWVLEDLEYVICEQGM [ILA56]
